The list shows a part of the results.

Amino acid sequences for entries named in this document (tags omitted).
UniProt Q0JBA9, entry or part of it: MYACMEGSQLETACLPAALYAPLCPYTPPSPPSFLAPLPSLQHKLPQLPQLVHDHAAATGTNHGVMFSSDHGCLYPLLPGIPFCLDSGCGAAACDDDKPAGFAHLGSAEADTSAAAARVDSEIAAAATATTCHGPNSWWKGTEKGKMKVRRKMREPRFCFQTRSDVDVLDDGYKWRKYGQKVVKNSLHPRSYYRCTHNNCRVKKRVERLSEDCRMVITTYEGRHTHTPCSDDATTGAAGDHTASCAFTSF

This assay concerns the target OsWRKY34 (Oryza sativa, UniProt Q0JBA9 1-250). Nature of the assay: protein-binding microarray (RPBM); PBS, 2% BSA, 51.3 ng/ul salmon testes DNA, 50 uM zinc acetate, 200 nM TF, 25 C, 1 h; high values mean tight binding. The note with it: protein: recombinant; tags: N-terminal polyhistidine and DsRed monomer fusion (pET32a); label: CyDye5-dUTP incorporated in the synthesized complementary strand; 3' TTTTT single-stranded linker to array surface; dsDNA, one strand shown. Put shortly: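 Transcription factors were made in E. coli BL21-CodonPlus as N-terminal fusions to a polyhistidine tag and DsRed, then purified on Ni–NTA. After primer extension with Cy5-dUTP and blocking with 2% BSA, a custom Agilent array was exposed for 1 h at 25 °C to 200 nM protein in PBS, 2% BSA, salmon testes DNA and 50 µM zinc acetate. Washed arrays were scanned on an Axon 4000B, and the binding signal is per-feature fluorescence intensity in arbitrary units.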
Take “GCTTCATCCGATCGCCCGCGCCAAGAACTCGATCCTCATGCGGAGTCACCTAGTGCAG”: the binding signal was 8200 fluorescence intensity (a.u.).

For “TTTGGTCAAACTTAAAAAAGTTTGACTACAACTAAATTCACGGAGTCACCTAGTGCAG”, the binding signal was 8740 fluorescence intensity (a.u.).

On to “CTCCGCCTCTCCGCCTCTCCGCCTAACCCTAACCCTAGCCCGGAGTCACCTAGTGCAG”, for which the binding signal was 8540 fluorescence intensity (a.u.). As to “CTGCAACTCTTGGCACCAGGAACCTTCGCTGTCTCAATCACGGAGTCACCTAGTGCAG”, the binding signal is 9650 fluorescence intensity (a.u.). Next, “AGCTTCTTGTTACGCGTTCTCTGCTGATTGGCTTATCAACCGGAGTCACCTAGTGCAG”: 9450 fluorescence intensity (a.u.). With “ATATTGTCACGTCCCCTTTTTCGTGTCTTCTATTTTGCTCCGGAGTCACCTAGTGCAG”, the binding signal is 9280 fluorescence intensity (a.u.). With “CTCTCCACCTGCTGCATTACTGCACCTCCTCTACCTCCATCGGAGTCACCTAGTGCAG”, the binding signal is 11900 fluorescence intensity (a.u.).

On to “TCAGTGGTTGTAGTGGTAGTACCATTATGGTAGAGGATGTCGGAGTCACCTAGTGCAG”, for which the binding signal is 8250 fluorescence intensity (a.u.). For “TGGGACGCCGTACACTCCCTCAGCAGCCGCCTCGCATTCTCGGAGTCACCTAGTGCAG” the value was 10800 fluorescence intensity (a.u.); for “TCTTGGTAACTACCCTGCTTGACTACTGAATTTTTCTTGCCGGAGTCACCTAGTGCAG”, 8320 fluorescence intensity (a.u.); for “ATACACCGCCCGTTTCGCCAGTGTCTTTTCTCTTTTTACTCGGAGTCACCTAGTGCAG”, 8160 fluorescence intensity (a.u.). Next, “TCTCACCGGCCTCGCAGCTGCTTCTACTTTACCGTCGTCACGGAGTCACCTAGTGCAG”: 8270 fluorescence intensity (a.u.). Regarding “CACCACCTCAGTCTATTACTATCTCTGCTCAGTTTCTTTTCGGAGTCACCTAGTGCAG”, the binding signal was 9830 fluorescence intensity (a.u.). With “TTGACCCATCCTGATTAATTGTTTAGCTAAGTTTTTTTTACGGAGTCACCTAGTGCAG”, the binding signal was 8830 fluorescence intensity (a.u.). Next, “TATCCTTTTCCGGCTACGTGTTGATTTTGCTCGTTTGTTCCGGAGTCACCTAGTGCAG”: 10700 fluorescence intensity (a.u.); “CCTTACAGTGTATTGGACCTATTGCATCTTTTAGCTCGTCCGGAGTCACCTAGTGCAG”: 8080 fluorescence intensity (a.u.); “CCACACCACCGTCCCCTCGCTGCCTGCCTCCACCTCACCTCGGAGTCACCTAGTGCAG”: 8950 fluorescence intensity (a.u.). “TTTGGTTAAAGTCAAACTACCATAAGTTTGACTAACTCTGCGGAGTCACCTAGTGCAG”: the binding signal is 12700 fluorescence intensity (a.u.). With “CAGGTAATGGATTGATTGCAGGGTTGGGATTTGACCAGGTCGGAGTCACCTAGTGCAG”, the binding signal was 11300 fluorescence intensity (a.u.). As for “GTCAACCACCTCAGACATCACCAACGCTATAAAATGCTATCGGAGTCACCTAGTGCAG”, the binding signal was 10700 fluorescence intensity (a.u.). For “TCTTTTTTCTGCCCAACATGCTTTCTTTTCTCTGATCTAGCGGAGTCACCTAGTGCAG” the value was 10900 fluorescence intensity (a.u.); for “TATATATCTCGCACCAGGCTGTTCATATTTGCTCCTTACCCGGAGTCACCTAGTGCAG”, 8540 fluorescence intensity (a.u.). With “ACTAGTCTCTTCTTACCGGAATCCCCACACCTTCTCGCCACGGAGTCACCTAGTGCAG”, the binding signal was 8980 fluorescence intensity (a.u.).

With “GACACACTTTTACCCTTACACAACCCGTTTGTTCCCTGCACGGAGTCACCTAGTGCAG”, the binding signal was 12200 fluorescence intensity (a.u.). “ATATATTTTTGTCTACTCAATCCTTTTTTCCCTTCTCTCACGGAGTCACCTAGTGCAG”: the binding signal is 8740 fluorescence intensity (a.u.). As for “CGGCGGTTACTGATGCGCTTATTTGATTTGATCACAACACCGGAGTCACCTAGTGCAG”, the binding signal is 8610 fluorescence intensity (a.u.). Take “GGCCTTTACACGGGCCCAAATGTATCTCTCTTGGTTGTAGCGGAGTCACCTAGTGCAG”: the binding signal is 8300 fluorescence intensity (a.u.). “TGGTGAACCCTCCGGGGTTTGGGTCTTTTTTTGCTTCGGTCGGAGTCACCTAGTGCAG”: the binding signal was 8790 fluorescence intensity (a.u.). Turning to “AAAGGGCAAGAGGTGTATGGTTTCGACCCTGAGATCCTTGCGGAGTCACCTAGTGCAG”, the binding signal was 8210 fluorescence intensity (a.u.). With “ATCCTCTGTTTTACACTCGTATTTCTATCAGAATCCTATGCGGAGTCACCTAGTGCAG”, the binding signal was 8440 fluorescence intensity (a.u.). For “TGTGTTCTTTGCTTATCGTTGGAAGCTAATTACTCTCACACGGAGTCACCTAGTGCAG” the value was 10900 fluorescence intensity (a.u.); for “TCAACTCACCGACCGCCGCCCTTTCTCTGTCCCCAGCTCTCGGAGTCACCTAGTGCAG”, 9590 fluorescence intensity (a.u.); for “TCAACTTTTTTACCACTCAATTCGTATACCCTCTATAATACGGAGTCACCTAGTGCAG”, 10300 fluorescence intensity (a.u.). For the sequence “CTCTACCCAGCTCCACCTACTTTCAAGTTGTTAATTTTGACGGAGTCACCTAGTGCAG”, the binding signal is 10700 fluorescence intensity (a.u.).

As for “TCCTCCACCATGCGGGCCCCACACATATCCGGTTTCTTCTCGGAGTCACCTAGTGCAG”, the binding signal is 10600 fluorescence intensity (a.u.). Regarding “GAGGAGGGGAGAAACGGGAGGTTGGTGGTGGTGGTGGAGGCGGAGTCACCTAGTGCAG”, the binding signal was 15200 fluorescence intensity (a.u.). As for “GCGGGGATTTGGAAATTTGGATGGATTTGGGAATTTGGGTCGGAGTCACCTAGTGCAG”, the binding signal is 8730 fluorescence intensity (a.u.). For “AAACCCATGTACACCCTGCACTCGATCGCAAGCCACAACACGGAGTCACCTAGTGCAG”, the binding signal is 9610 fluorescence intensity (a.u.). Consider “CTCCTCCCGCGCGCTCCGCCGCTTCTCCGACGACGTCCTCCGGAGTCACCTAGTGCAG”, for which the binding signal is 8140 fluorescence intensity (a.u.). For “TGCCTAACCGTTTCTGAAAAGACTTGTTCCTGCCCATATTCGGAGTCACCTAGTGCAG” the value was 10300 fluorescence intensity (a.u.). For “GAGCATTGTTTTATTCTGCAGCCCCATCGTTAGGCATATTCGGAGTCACCTAGTGCAG” the value was 10300 fluorescence intensity (a.u.). Take “CTCATCCTTTCGCTTATATTTATACCTATCAGCTAAAAATCGGAGTCACCTAGTGCAG”: the binding signal is 8060 fluorescence intensity (a.u.).

Values taken from PMC7819943, “Rice protein-binding microarrays: a tool to detect cis-acting elements near promoter regions in rice”.
